PubChem BioAssay AID652243, Drosophila RNAi Screening Center, 2013
The deposit covers about 24,000 reagents; shown is an unselected part of those with a known target gene and a result. Over the whole deposit, 246 (1%) are marked active. 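Plates not normalised; calls are printed but the firefly/Renilla ratio behind them is not deposited; fold cut for lowering reported inconsistently.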 Raw values vary from plate to plate and are shown uncorrected. The record does not give: the amount of reagent.

Aim: 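Knock-downs that decrease or increase androgen receptor reporter signal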 (primary screen)
Cells: Drosophila S2R+ cells
Knock-down reagent: long dsRNA against Drosophila genes
Timing: 72 h (48 h, then 24 h hormone)
Conditions: synthetic androgen R1881 at 10 nM for 24 h
Measured: 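Per-well raw luminescence of the androgen-driven firefly reporter and of the Renilla control, two replicates each, without normalisation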
Scale: firefly reporter light: higher = more light from androgen-responsive reporter; Renilla control light: higher = more constitutive control signal (cell number, transfection)
Rule for the call: 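Hit when the log firefly-to-Renilla ratio dropped or increased by a fixed fold versus the mean of GFP or LacZ controls across duplicate plates; lowering cut given as 1.5 and as 3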
Calls: active = hit: reporter lowered or raised; inactive = no hit

firefly reporter light, replicate 1 | firefly reporter light, replicate 2 | Renilla control light, replicate 1 | Renilla control light, replicate 2 | Call | predicted target | amplicon
2.16e5 | 2.65e5 | 1.93e6 | 1.95e6 | inactive | ko | DRSC11893
2.38e5 | 2.87e5 | 6.16e5 | 6.21e5 | inactive | ko | DRSC26598
1.37e6 | 6.14e5 | 2.76e6 | 7.54e5 | inactive | CG31010 | DRSC14006
1.69e5 | 1.41e5 | 1.65e6 | 1.73e6 | inactive | Exo84 | DRSC15965
8.72e5 | 1.16e6 | 1.61e6 | 1.56e6 | inactive | promL | DRSC08733
1.02e5 | 1.22e5 | 5.42e5 | 6.02e5 | inactive | Es2 | DRSC18663
2.42e5 | 1.84e5 | 6.07e5 | 8.01e5 | inactive | Es2 | DRSC27829
3.71e5 | 2.69e5 | 2.52e6 | 2.06e6 | inactive | ODA-Dnal1 | DRSC07270
2.98e5 | 5.17e5 | 1.24e6 | 2.00e6 | inactive | ODA-Dnal1 | DRSC28259
4.03e5 | 3.37e5 | 2.95e6 | 2.29e6 | inactive | Obp56c | DRSC06552
9.31e5 | 9.66e5 | 1.83e6 | 1.52e6 | inactive | Obp56c | DRSC22325
4.04e5 | 6.96e5 | 1.32e6 | 2.02e6 | inactive | Obp56c | DRSC28276
70364 | 91568 | 9.13e5 | 1.48e6 | inactive | CG31269 | DRSC15744
6.13e5 | 4.02e5 | 1.01e6 | 1.11e6 | inactive | CG31269 | DRSC28845
1.77e5 | 1.68e5 | 2.00e6 | 1.70e6 | inactive | TTLL3A | DRSC02143
5.66e5 | 6.48e5 | 6.39e5 | 9.73e5 | inactive | TTLL3A | DRSC28462

Continued (2 carried over from the part before).
firefly reporter light, replicate 1 | firefly reporter light, replicate 2 | Renilla control light, replicate 1 | Renilla control light, replicate 2 | Call | predicted target | amplicon
1.77e5 | 1.68e5 | 2.00e6 | 1.70e6 | inactive | TTLL3A | DRSC02143
5.66e5 | 6.48e5 | 6.39e5 | 9.73e5 | inactive | TTLL3A | DRSC28462
4.78e5 | 4.37e5 | 1.52e6 | 1.19e6 | inactive | Ubi-p63E | DRSC22016
85783 | 98556 | 7.86e5 | 9.13e5 | inactive | Tl | DRSC16885
5.38e5 | 5.62e5 | 1.60e6 | 1.61e6 | inactive | CG32834 | DRSC21929
2.07e5 | 4.10e5 | 2.61e5 | 5.42e5 | inactive | CG32834 | DRSC28346
70755 | 46989 | 4.24e5 | 3.83e5 | inactive | CG1324 | DRSC20496
7.46e5 | 5.29e5 | 8.73e5 | 7.49e5 | inactive | CG1324 | DRSC25582
1.09e6 | 7.15e5 | 1.46e6 | 1.74e6 | inactive | CG5026 | DRSC10470
– | – | – | – | inactive | CG5026 | DRSC36891
– | – | – | – | inactive | CG5026 | DRSC36892
